Experimental findings from US20160022599A1, “System and Method for Fabrication of Uniform Polymer Films Containing Nano and Micro Particles via Continuous Drying Process” (NEW JERSEY INSTITUTE OF TECHNOLOGY, priority 2013, published 2016) are described below.

The nature of this series: USP IV flow-through cell dissolution of films in SDS solution. In kind it is physicochemical. The note with it: SDS media; similarity and difference factors.

Molecules are shown by their SMILES.

For `COc1ccc2cc([C@H](C)C(=O)O)ccc2c1` [NPX, naproxen], the “dissolution profiles of films with vs without SDS” value was “statistically similar dissolution profiles with and without SDS”.
